Reference: publication PMC12013949
Results are given in words; binding and its absence hold for the method and conditions named. Binding seen in cells or lysates may run through a third protein. Some entries that bind do so weakly or less than the wild type. Sequences can lack the tags named with a protein.

Chains of the proteins cited; added tags and fusions are not shown. Residues count along the entry.
UniProt P29844, residues 19-656: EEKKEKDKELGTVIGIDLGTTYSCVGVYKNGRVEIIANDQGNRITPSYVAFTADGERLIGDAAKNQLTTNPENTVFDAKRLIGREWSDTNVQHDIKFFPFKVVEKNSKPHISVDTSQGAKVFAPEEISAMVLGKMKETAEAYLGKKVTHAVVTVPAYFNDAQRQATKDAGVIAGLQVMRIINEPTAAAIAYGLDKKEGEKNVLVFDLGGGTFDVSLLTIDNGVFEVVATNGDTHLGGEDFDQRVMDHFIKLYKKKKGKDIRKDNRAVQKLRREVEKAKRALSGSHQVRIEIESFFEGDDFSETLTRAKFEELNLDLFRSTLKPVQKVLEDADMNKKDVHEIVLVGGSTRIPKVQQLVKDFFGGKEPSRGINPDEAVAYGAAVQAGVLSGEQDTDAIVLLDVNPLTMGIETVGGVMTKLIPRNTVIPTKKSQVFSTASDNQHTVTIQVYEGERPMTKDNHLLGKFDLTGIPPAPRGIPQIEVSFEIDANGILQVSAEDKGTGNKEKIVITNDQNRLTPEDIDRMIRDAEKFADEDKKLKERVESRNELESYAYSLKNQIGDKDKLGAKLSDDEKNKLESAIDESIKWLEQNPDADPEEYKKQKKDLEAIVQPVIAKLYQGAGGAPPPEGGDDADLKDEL

Biological target: Flag-Hsc70-3 (pCDNA3.1-Flag-Hsc70-3) (Drosophila) (UniProt P29844)
Assay: co-IP; HEK293T cells co-transfected with pCDNA3.1-Flag or pCDNA3.1-Flag-Hsc70-3 and pCDNA3.1-HA-WRNexo, lysed after 48 h; anti-FLAG M2 gel, 4 °C for 2 h; six washes with lysis buffer; elution with 3× FLAG peptide; western blotting

binding: binds
B1: HA-WRNexo (pCDNA3.1-HA-WRNexo) (protein, UniProt Q9VE86 1-353)
chain: MEKYLTKMPIKSKANEVPKEEAGVKKETPKVARKATKKDTPKELKDKENAGDDNTPKQTKGRPGRPAAKRKNLDTPDVTEKLAMEEENPPKRRSSRLTRSTRSMAEDGSPSPEKEKPEKLPFIKYKGAIKYFTESQDIAASADDVLQWVEKQKDEVVPMAFDMEWPFSFQTGPGKSAVIQICVDEKCCYIYQLTNVKKLPAALVALINHPKVRLHGVNIKNDFRKLARDFPEVTAEPLIEKCVDLGLWCNEVCETGGRWSLERLTNFIAKKAMDKSKKVRMSKWHVIPLDENQLMYAAIDVYIGQVIYRELERREKVKIKNEEEFKEKNGDAAFKAMKALGETFLTKINEVTL
